Test results published in patent US6376653 (GlaxoSmithKline, dated 2002).
These are yes or no findings as the source states them, for the method shown. Some results given as binding are weak or reduced against the parent protein; the word gives no strength.

Amino acid sequences for entries named in this document (tags omitted). Residues count along the entry.
UniProt Q02763, residues 23-748: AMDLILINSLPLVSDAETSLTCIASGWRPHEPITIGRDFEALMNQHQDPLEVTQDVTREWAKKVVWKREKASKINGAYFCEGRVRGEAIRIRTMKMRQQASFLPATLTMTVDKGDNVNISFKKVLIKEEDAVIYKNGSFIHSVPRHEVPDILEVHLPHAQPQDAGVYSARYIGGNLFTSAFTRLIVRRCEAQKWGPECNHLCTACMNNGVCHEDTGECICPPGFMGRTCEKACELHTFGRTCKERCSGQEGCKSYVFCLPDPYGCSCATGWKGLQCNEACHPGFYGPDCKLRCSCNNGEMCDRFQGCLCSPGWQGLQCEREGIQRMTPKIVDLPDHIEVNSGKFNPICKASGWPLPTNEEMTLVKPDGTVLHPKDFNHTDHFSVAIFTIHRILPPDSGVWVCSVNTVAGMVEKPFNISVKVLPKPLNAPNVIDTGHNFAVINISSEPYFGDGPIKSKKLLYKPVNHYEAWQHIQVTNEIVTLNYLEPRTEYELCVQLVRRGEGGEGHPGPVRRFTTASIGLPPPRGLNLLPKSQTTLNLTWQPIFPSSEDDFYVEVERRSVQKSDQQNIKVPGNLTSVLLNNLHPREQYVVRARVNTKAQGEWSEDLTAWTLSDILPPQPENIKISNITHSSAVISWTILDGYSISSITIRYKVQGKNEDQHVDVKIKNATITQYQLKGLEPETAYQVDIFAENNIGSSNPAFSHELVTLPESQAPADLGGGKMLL

Legend:
[1] = biological target: recombinant Tie2 extracellular domain-Fc fusion (UniProt Q02763); experiment: BIAcore SPR, hybridoma supernatant; mAb captured on rabbit anti-mouse IgG Fc then Tie2-Fc injected, and the reverse format
[2] = biological target: recombinant Tie2 extracellular domain-Fc fusion (UniProt Q02763); experiment: BIAcore SPR, purified mAb captured on rabbit anti-mouse IgG Fc, Tie2-Fc injected

binding [1]: binds | binding [2]: binds
B1: monoclonal antibody 12H8 (antibody, V domains shown)
VH: EVQLVESGGGLVKPGGSLKLSCAASGFTFSDYGMHWVRQAPEKGLEWVAYINSGSSTITYADTVKGRFTISRDNAKNTLFLQMTSLRSEDTAIYYCARGYYGPYYFDYWGQGTALTVSS
VL: DIVMTQSHKFMSTSVGDRVSFTCKASQNVGTAVAWYQQKPGQSPKLLIYWASSRHTGVPDRFTGSGSGTDFTLTITNVQSEDLADYFCQEYSSYPLTFGVGTKLELK
notes: also called mAb 12H8
